Substitutions are numbered along the chain they refer to. The exact form of at least one protein or probe is not confirmed. For some of these results: The comparison behind a weaker result is the experiment's own reference, which may not be listed here. Protein sequences can lack the tags named with them.
How the values were obtained:
Assay in all cases: enzyme reaction in vitro
[1] = tested on: T1, BsmI R186D (Bacillus stearothermophilus NUB36); settings: low nicking activity, low ds-DNA cleavage; protein in an extract; only the site is given
T1 sequence: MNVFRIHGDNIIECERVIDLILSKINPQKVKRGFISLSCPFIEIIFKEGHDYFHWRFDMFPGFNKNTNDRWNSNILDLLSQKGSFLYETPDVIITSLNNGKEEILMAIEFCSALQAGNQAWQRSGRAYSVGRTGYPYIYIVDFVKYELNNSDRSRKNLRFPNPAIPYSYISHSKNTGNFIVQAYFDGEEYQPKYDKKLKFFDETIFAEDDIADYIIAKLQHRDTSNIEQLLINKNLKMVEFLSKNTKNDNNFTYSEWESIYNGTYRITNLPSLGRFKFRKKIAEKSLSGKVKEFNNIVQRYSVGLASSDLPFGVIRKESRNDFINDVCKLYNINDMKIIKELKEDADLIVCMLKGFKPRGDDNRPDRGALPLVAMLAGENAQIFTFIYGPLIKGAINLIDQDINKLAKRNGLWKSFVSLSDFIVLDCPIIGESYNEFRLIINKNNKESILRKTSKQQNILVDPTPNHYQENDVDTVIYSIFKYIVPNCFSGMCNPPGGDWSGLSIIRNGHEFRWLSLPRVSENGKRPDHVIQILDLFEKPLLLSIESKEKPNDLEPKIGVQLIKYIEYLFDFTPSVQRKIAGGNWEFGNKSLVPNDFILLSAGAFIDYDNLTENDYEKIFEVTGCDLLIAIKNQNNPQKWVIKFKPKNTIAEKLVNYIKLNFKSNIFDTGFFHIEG

[2] = tested on: T2, BsmI R266D (Bacillus stearothermophilus NUB36); settings: ds-DNA cleavage; protein in an extract; only the site is given
T2 sequence: T1 sequence with D186R, R266D

[3] = tested on: T3, BsmI R320D (Bacillus stearothermophilus NUB36); settings: ds-DNA cleavage; protein in an extract; only the site is given
T3 sequence: T1 sequence with D186R, R320D

[4] = tested on: T4, Nb.BsmI (R507D/G509V/E546V) (Bacillus stearothermophilus NUB36); settings: high nicking activity, bottom strand ^GCATTC by run-off sequencing; active 25-75 C; no linear DNA with 1-30 units in buffer 3 (100 mM NaCl), 65 C 1 h; purified recombinant protein; only the site is given
T4 sequence: T1 sequence with D186R, R507D, G509V, E546V

Sequence: GCATTC [pBR322 supercoiled plasmid (one BsmI site)]
- activity on this sequence [1]: less active
- activity on this sequence [2]: active
- activity on this sequence [3]: active
- activity on this sequence [4]: active
